Results taken from patent publication US20160303156A1 (priority 2014, published 2016).
Structures can show the parent of a compound that is named as a salt.

Columns and labels:
[1] = tested on: citric acid induced cough; experiment: Inhibition on citric acid induced cough in guinea pig; type: in vivo, Hartley guinea pigs
Experimental: 1.1 Test animals: qualified Hartley guinea pigs, weight 250-300 g, female:male 1:1, available from Guangdong Medical Laboratory Animal Center.
1.3 Instrument: YLS-8A cough and asthma inducing instrument (a product available from Equipment Station of Shandong Academy of Medical Sciences).
The guinea pigs in each group were administered by oral gavage at a dosage of 0.5 ml/100 g of body weight, and equal volume of saline was given to the animals in the blank control group. 1 h after administration by oral gavage, the animals received spray of citric acid for 7 min. After the spray was completed, the cough counts were observed and recorded in ten minutes from the start of the spray (the typical cough is loud and clear and often accompanied by a forward rush).

[2] = tested on: excretion of phenol red (secretory function of the respiratory tract); experiment: Effect on excretion of phenol red in mice; type: in vivo, Kunming mice
Experimental: Kunming mice, female:male 1:1, weight 30-40 g, available from Guangdong Medical Laboratory Animal Center. […] Hitachi 3010 UV and visible spectrophotometer. […] After 30 min, the mice were sacrificed, and the trachea was detached. A section of the trachea from the thyroid cartilage to a branch of the trachea was excised, and placed in a test tube containing 3 ml of saline, to which 0.1 ml of a 15% sodium bicarbonate solution was then added. After centrifugation, the supernatant was taken and measured for the OD value at 546 nm. The phenol red content was calculated from a phenol red standard curve. […] If the drug can improve the secretory function of the respiratory tract, the excretion of phenol red can be enhanced.

In the case of `O=C(O)COCCN1CCN([C@H](c2ccccc2)c2ccc(Cl)cc2)CC1` [Levocetirizine hydrochloride, levocetirizine hydrochloride], the “Cough relieving effect (in words)” value ([1]; citric acid induced cough) is reported as “obvious cough relieving effect”, the Cough count ([1]; oral gavage, citric acid spray 7 min 1 h after dosing, coughs in ten minutes, n = 8) is reported as 26.3 ± 7.1 ^ and the “Effect on excretion of phenol red / sputum reducing effect (in words)” value [2] is reported as “obviously enhance the excretion of phenol red”. The Phenol red concentration ([2]; oral gavage 2 days, trachea wash 30 min after i.p. phenol red, n = 10) was 1.13 ± 0.64 ^ μg/ml.
